The campaign covered roughly 360,000 compounds. About 7,500 (2.1%) were called active. This list was built around the results that the source calls inconclusive (neither active nor inactive); the mix of calls is not that of the screen. The call rests on the fitted dose curve; in most records, active means well fitted inhibition curve with a large enough effect; inconclusive means small, poorly fitted or top-dose-only effect, or effect the other way; inactive means flat fitted curve, though single readings scatter. A potency beside an inconclusive call is a rough fit, not a confirmed value.
Assay: Nrf2 qHTS screen for inhibitors; further: nearly all actives have a fitted effect of over 60% in size
Conditions: A549 ARE-Fluc reporter, luciferase luminescence, 18-24 h; activity change, negative = inhibition: at 46 µM (top of the series)
Summary of the method: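 Concentration-response testing used A549 ARE_Fluc cells at 5000 cells/well. Following an 18-24 h compound incubation, viability was read by fluorescence (Ex 405/Em 525) and luciferase output by luminescence.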
On the % scale 0 is the no-effect control and ±100 the full control effect; potency means the concentration at half of the fitted maximal effect.

SMILES | activity change, negative = inhibition | Potency
CCCCC1=CC2=C(c3ccco3)C(=O)C(C)(OC(=O)c3ccc(OC)cc3)C(=O)C2=CN1CCCOC(C)C (centres undefined) | inactive: -10.7% | 
CCN(CC(=O)NCc1ccc(F)cc1)C(=O)C1CCN(S(=O)(=O)c2ccc(C(C)C)cc2)CC1 |  | inconclusive: 23.1 µM [falling, partial curve, poor fit]
CC(C)NC(=O)NC(=O)COC(=O)c1ncc(Cl)c(Cl)c1Cl |  | inconclusive: 6.51 µM [falling, single point]
O=C(COc1nnnc2ccccc12)N1CCCc2ccccc21 |  | inconclusive: 20.6 µM [activator, single point]
CCCCC(=O)NCCc1cc2ccc(OC)cc2[nH]c1=O | inactive: -4.26% | 
COc1ccc(-c2nnc(-c3cc(OC)c(OC)c(OC)c3)o2)cc1OC |  | inconclusive: 23.1 µM [falling, single point]
CN(C)N=Nc1nc[nH]c1C(N)=O | inactive: -20.1% | 
O=S(=O)(c1cccc(C(F)(F)F)c1)N1CCC(Oc2ccc(-n3cnnn3)cc2)CC1 |  | active: 18.4 µM
Cc1nc(-c2ccc(F)cc2)c(CC(=O)Nc2ccc(C)c(S(=O)(=O)N3CCOCC3)c2)s1 |  | active: 18.4 µM
CCCCNC(=O)CCCn1c(=S)[nH]c2cc3c(cc2c1=O)OCO3 |  | inconclusive: 6.51 µM [falling, partial curve, poor fit]
Cn1cc(C(=O)CCl)c2ccccc21 | inactive: 0.522% | 
O=C(NNc1cccc([N+](=O)[O-])c1)/C(=C\c1cccnc1)NC(=O)c1ccccc1 |  | inconclusive: 0.103 µM [falling, full curve, poor fit]
CO[C@@]12[C@@H]3N[C@@H]3CN1C1=C(C(=O)C(N)=C(C)C1=O)[C@@H]2COC(N)=O |  | active: 10.3 µM
O=c1[nH]c2ccc(NCc3ccc(-c4ccccc4F)o3)cc2[nH]1 |  | inconclusive: 29.1 µM [falling, single point]
O=C(CSCc1ccc(Cl)cc1)Nc1cccc(C(=O)O)c1 |  | inconclusive: 8.2 µM [activator, partial curve, poor fit]
Cc1ccc(-c2cc(C(F)(F)F)c(C#N)c(SCCC#N)n2)o1 | inactive: 6.95% | 
COc1ccccc1NS(=O)(=O)c1cccc(NC(=O)C2CC2)c1 |  | inconclusive: 18.4 µM [falling, partial curve, poor fit]
Cc1ccc(C(C)C)c(OCC(=O)Nc2cccc(-c3nc4ncccc4o3)c2)c1 |  | inconclusive: 13 µM [falling, partial curve, poor fit]
O=C(Nc1ccc(S(=O)(=O)NC2=NCCCCC2)cc1)c1ccc(C(F)(F)F)cc1 |  | inconclusive: 23.1 µM [falling, single point]
O=C(CCSc1nc(-c2ccco2)cc(C(F)(F)F)n1)NCC1CCCO1 (centres undefined) |  | inconclusive: 18.4 µM [falling, single point]
Cc1cc(NC(=O)CSc2nc3c(sc4ccccc43)c(=O)n2CCCN2CCOCC2)n[nH]1 |  | active: 7.31 µM
O=C(CSc1nnc(CN2CCOCC2)n1-c1ccc(Cl)cc1)Nc1ccc2c(c1)OCO2 |  | inconclusive: 23.1 µM [falling, single point]

Exported with tabs: 3 of the compounds above
SMILES	activity change, negative = inhibition	Potency
CC(C)NC(=O)NC(=O)COC(=O)c1ncc(Cl)c(Cl)c1Cl		inconclusive: 6.51 µM [falling, single point]
O=C(COc1nnnc2ccccc12)N1CCCc2ccccc21		inconclusive: 20.6 µM [activator, single point]
CCCCC(=O)NCCc1cc2ccc(OC)cc2[nH]c1=O	inactive: -4.26%	

Additional entries

SMILES | activity change, negative = inhibition | Potency
CCc1c(C(=O)NCc2ccccc2Cl)[nH]c(C)c1C(C)=O |  | inconclusive: 2.06 µM [falling, partial curve]
CCOc1ccc(-c2cc3c(=O)n(Cc4nc(-c5ccc(OC)cc5OC)oc4C)ccn3n2)cc1Cl | inactive: 20.8% | 
COc1cccc(Oc2nc3c(c(=O)n(Cc4ccccc4Cl)c(=O)n3C)n2C)c1 | inactive: -1.95% | 
O=C(c1cccs1)N1CCc2ccccc21 |  | inconclusive: 9.2 µM [activator, partial curve]
O=C(NC1CCCCC1)c1cccs1 | inactive: 11.7% | 
CCOc1ccc(C(=O)N2CCC(c3nc(-c4ccc(S(=O)(=O)N5CCCC5)cc4)no3)CC2)cc1 |  | active: 13 µM
Cc1ccc2c(c1)C(=O)N1[C@H]3c4ccccc4OC[C@@H]3[C@H](c3ccccc3)[C@]1(C)C(=O)N2 |  | inconclusive: 2.06 µM [activator, full curve, poor fit]
Cc1cc(N2CCCC(C(=O)Nc3cccc4ccccc34)C2)n2ncnc2n1 (centres undefined) |  | inconclusive: 29.1 µM [falling, single point]
CC(=O)c1ccccc1NS(=O)(=O)c1c(C)nn(-c2ccccc2)c1C |  | inconclusive: 32.6 µM [falling, single point]
O=C(NCCc1ccc2c(c1)OCCO2)c1cc(F)cc(F)c1 |  | inconclusive: 0.731 µM [activator, full curve, poor fit]
O=C(CN1CC(=O)Oc2ccccc21)OCC(=O)c1ccc(Br)cc1 | inactive: -22.6% | 
CC(=O)Nc1nc2ccccc2n1Cc1ccc(C)cc1 |  | active: 18.4 µM
O=c1c2ccccc2sc2ccc(Cl)cc12 |  | inconclusive: 13 µM [activator, single point]
Cc1ccc(NC(=O)CN2CCCCCC2)c(Br)c1 |  | inconclusive: 8.2 µM [activator, partial curve]
Cc1cc2c(cc(C(=O)OC(C(=O)NCC3CCCO3)C(C)C)n2C)o1 (centres undefined) |  | inconclusive: 29.1 µM [falling, single point]
O=C(O)CNc1ccccc1C(=O)O | inactive: 2.24% | 
Cc1cc(C)c(S(=O)(=O)N2CCN(S(=O)(=O)N3CCCCCC3)CC2)c(C)c1 | inactive: 24.6% | 
COc1ccc(C(c2c(NC(=O)c3ccco3)sc(C)c2C)N2CCOCC2)cc1 (centres undefined) |  | inconclusive: 25.9 µM [falling, partial curve, poor fit]
O=C(NCc1ccc(Cl)cc1)C(=O)NCC(c1cccnc1)N1CCN(c2ccc(F)cc2)CC1 (centres undefined) |  | active: 20.6 µM
COc1cccc(C(=O)Cn2c(=N)n(C)c3ccccc32)c1 |  | inconclusive: 23.1 µM [activator, single point]
O=C(CN1C(=O)CCC1=O)Nc1nc(-c2ccc3ccccc3c2)cs1 |  | inconclusive: 29.1 µM [falling, partial curve, poor fit]
Cc1ccccc1-n1cnc2cc(NCc3cccs3)ccc21 |  | inconclusive: 29.1 µM [falling, partial curve, poor fit]
